# Reference: US20220378046A1, “EFFECTS OF NF-kB SIGNALING INHIBITORS ON BED BUG RESISTANCE TO ORALLY PROVISIONED ENTOMOPATHOGENIC BACTERIA” (South Dakota Board of Regents, priority 2021, published 2022)
# Some entries share one result that the patent states for a list of compounds.
# Tested on: Cimex lectularius
# Assay: Toxicity of NF-kB signaling inhibitors fed as lone agents to bed bugs (seven-day survivorship)
# Type: in vivo
# Details: adult bed bugs; inhibitor at 5 μg/mL or 10 μg/mL in blood meal; lone agent
# Description: For the following non-limiting Examples, the Cincinnati SRL strain of Cimex lectularius was used for the population of bed bugs. This strain was derived from a population of individuals collected by technicians from Sierra Research Laboratories, Inc. (Modesto, Calif.) in 2007 and has been maintained under laboratory conditions since this time. Colonies were maintained at the University of South Dakota in plastic jars containing corrugated cardboard harborages at 28 +/−1° C. and 60-70% relative humidity on a 12:12 photoperiod. The colonies were fed aseptically collected defibrinated rabbit blood (Hemostat Laboratories, Dixon, Calif.) once per week using an artificial membrane system (Hemotek Ltd., Blackburn, United Kingdom).
# The bed bugs were fed four individual small molecule inhibitors of NF-kB signaling (BMS345541, IKK16, IMD0354, Takinib) alone or in combination with two different bacterial entomopathogens (Pseudomonas entomophila and Bacillus thuringiensis israelensis). All chemical inhibitors were purchased from Sigma Aldrich (St. Louis, Mo.). Working stocks of 5 mg/mL were made in dimethyl sulfoxide (DMSO) for all inhibitors except for Takinib, which was dissolved at 2 mg/mL due to its lower solubility. The effects on both bed bug mortality and bacterial growth were assessed.
# The toxicity of NF-kB signaling inhibitors was analyzed by feeding the inhibitors as lone agents to bed bugs. In particular, the four individual small molecule inhibitors of NF-kB signaling (BMS345541, IKK16, IMD0354, Takinib) were analyzed. The concentrations of inhibitors were further diluted to 5 μg/mL and 10 μg/mL in defibrinated rabbit blood for feeding to bed bugs to examine their effects as lone agents. A separate group of bed bugs were fed equivalent volumes of DMSO diluent in blood to serve as controls. […] Mortality was then monitored regularly over a period of seven days. […]
row,Structure (SMILES),survival at 7 days post-feeding
1,"CCCn1/c(=N/C(=O)c2cccc(C(N)=O)c2)[nH]c2ccccc21 [Takinib, 3-N-(1-propylbenzimidazol-2-yl)benzene-1,3-dicarboxamide]",above 90%
2,"O=C(c1ccc(Nc2nccc(-c3cc4ccccc4s3)n2)cc1)N1CCC(N2CCCC2)CC1 [IKK16, (4-((4-(Benzo[b]thiophen-2-yl)pyrimidin-2-yl)amino)phenyl)(4-(pyrrolidin-1-yl)piperidin-1-yl)methanone]",above 90%
3,"Cc1ccc2nc(NCCN)c3ncc(C)n3c2c1 [BMS345541, N1-(1,8-dimethylimidazo[1,2-a]quinoxalin-4-yl)ethane-1,2-diamine]",above 90%
